According to paper PMC9372748:
No constants are given. Whether binding was seen depends on the method and setting. Binding seen in cells or lysates may run through a third protein. Here binding means that the protein was enriched with, or labelled near, the bait; the list need not be complete.

Amino acid sequences for entries named in this document (tags omitted). A change or cut given only in a name is not applied to a line headed by its entry.
UniProt P35637: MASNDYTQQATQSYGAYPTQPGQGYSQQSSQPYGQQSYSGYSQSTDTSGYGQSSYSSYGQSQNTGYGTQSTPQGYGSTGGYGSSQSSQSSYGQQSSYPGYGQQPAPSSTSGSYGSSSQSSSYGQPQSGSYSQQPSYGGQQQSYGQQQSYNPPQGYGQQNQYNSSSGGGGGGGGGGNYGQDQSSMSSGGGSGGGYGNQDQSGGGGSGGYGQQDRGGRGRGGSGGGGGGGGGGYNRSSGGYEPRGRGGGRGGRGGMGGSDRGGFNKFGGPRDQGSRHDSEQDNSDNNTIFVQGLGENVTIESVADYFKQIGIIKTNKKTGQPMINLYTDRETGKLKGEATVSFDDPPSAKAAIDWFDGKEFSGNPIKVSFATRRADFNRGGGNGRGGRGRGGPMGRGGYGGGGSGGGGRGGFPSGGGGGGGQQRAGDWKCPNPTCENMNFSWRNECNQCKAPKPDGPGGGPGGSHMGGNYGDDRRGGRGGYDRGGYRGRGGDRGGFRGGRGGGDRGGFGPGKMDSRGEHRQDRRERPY

B1: exportin-7 (XPO7) (protein, UniProt Q9UIA9 1-1087)
chain: MADHVQSLAQLENLCKQLYETTDTTTRLQAEKALVEFTNSPDCLSKCQLLLERGSSSYSQLLAATCLTKLVSRTNNPLPLEQRIDIRNYVLNYLATRPKLATFVTQALIQLYARITKLGWFDCQKDDYVFRNAITDVTRFLQDSVEYCIIGVTILSQLTNEINQADTTHPLTKHRKIASSFRDSSLFDIFTLSCNLLKQASGKNLNLNDESQHGLLMQLLKLTHNCLNFDFIGTSTDESSDDLCTVQIPTSWRSAFLDSSTLQLFFDLYHSIPPSFSPLVLSCLVQIASVRRSLFNNAERAKFLSHLVDGVKRILENPQSLSDPNNYHEFCRLLARLKSNYQLGELVKVENYPEVIRLIANFTVTSLQHWEFAPNSVHYLLSLWQRLAASVPYVKATEPHMLETYTPEVTKAYITSRLESVHIILRDGLEDPLEDTGLVQQQLDQLSTIGRCEYEKTCALLVQLFDQSAQSYQELLQSASASPMDIAVQEGRLTWLVYIIGAVIGGRVSFASTDEQDAMDGELVCRVLQLMNLTDSRLAQAGNEKLELAMLSFFEQFRKIYIGDQVQKSSKLYRRLSEVLGLNDETMVLSVFIGKIITNLKYWGRCEPITSKTLQLLNDLSIGYSSVRKLVKLSAVQFMLNNHTSEHFSFLGINNQSNLTDMRCRTTFYTALGRLLMVDLGEDEDQYEQFMLPLTAAFEAVAQMFSTNSFNEQEAKRTLVGLVRDLRGIAFAFNAKTSFMMLFEWIYPSYMPILQRAIELWYHDPACTTPVLKLMAELVHNRSQRLQFDVSSPNGILLFRETSKMITMYGNRILTLGEVPKDQVYALKLKGISICFSMLKAALSGSYVNFGVFRLYGDDALDNALQTFIKLLLSIPHSDLLDYPKLSQSYYSLLEVLTQDHMNFIASLEPHVIMYILSSISEGLTALDTMVCTGCCSCLDHIVTYLFKQLSRSTKKRTTPLNQESDRFLHIMQQHPEMIQQMLSTVLNIIIFEDCRNQWSMSRPLLGLILLNEKYFSDLRNSIVNSQPPEKQQAMHLCFENLMEGIERNLLTKNRDRFTQNLSAFRREVNDSMKNSTYGVNSNDMMS
B2: exportin-6 (XPO6) (protein, UniProt Q96QU8 1-1125)
chain: MASEEASLRALESLMTEFFHDCTTNERKREIEELLNNFAQQIGAWRFCLYFLSSTRNDYVMMYSLTVFENLINKMWLGVPSQDKMEIRSCLPKLLLAHHKTLPYFIRNKLCKVIVDIGRQDWPMFYHDFFTNILQLIQSPVTTPLGLIMLKTTSEELACPREDLSVARKEELRKLLLDQVQTVLGLLTGILETVWDKHSVTAATPPPSPTSGESGDLLSNLLQSPSSAKLLNQPIPILDVESEYICSLALECLAHLFSWIPLSASITPSLLTTIFHFARFGCDIRARKMASVNGSSQNCVSGQERGRLGVLAMSCINELMSKNCVPMEFEEYLLRMFQQTFYLLQKITKDNNAHTVKSRLEELDESYIEKFTDFLRLFVSVHLRRIESYSQFPVVEFLTLLFKYTFHQPTHEGYFSCLDIWTLFLDYLTSKIKSRLGDKEAVLNRYEDALVLLLTEVLNRIQFRYNQAQLEELDDETLDDDQQTEWQRYLRQSLEVVAKVMELLPTHAFSTLFPVLQDNLEVYLGLQQFIVTSGSGHRLNITAENDCRRLHCSLRDLSSLLQAVGRLAEYFIGDVFAARFNDALTVVERLVKVTLYGSQIKLYNIETAVPSVLKPDLIDVHAQSLAALQAYSHWLAQYCSEVHRQNTQQFVTLISTTMDAITPLISTKVQDKLLLSACHLLVSLATTVRPVFLISIPAVQKVFNRITDASALRLVDKAQVLVCRALSNILLLPWPNLPENEQQWPVRSINHASLISALSRDYRNLKPSAVAPQRKMPLDDTKLIIHQTLSVLEDIVENISGESTKSRQICYQSLQESVQVSLALFPAFIHQSDVTDEMLSFFLTLFRGLRVQMGVPFTEQIIQTFLNMFTREQLAESILHEGSTGCRVVEKFLKILQVVVQEPGQVFKPFLPSIIALCMEQVYPIIAERPSPDVKAELFELLFRTLHHNWRYFFKSTVLASVQRGIAEEQMENEPQFSAIMQAFGQSFLQPDIHLFKQNLFYLETLNTKQKLYHKKIFRTAMLFQFVNVLLQVLVHKSHDLLQEEIGIAIYNMASVDFDGFFAAFLPEFLTSCDGVDANQKSVLGRNFKMDRDLPSFTQNVHRLVNDLRYYRLCNDSLPPGTVKL
B3: transportin-2 (TNPO2) (protein, UniProt O14787 1-897)
chain: MDWQPDEQGLQQVLQLLKDSQSPNTATQRIVQDKLKQLNQFPDFNNYLIFVLTRLKSEDEPTRSLSGLILKNNVKAHYQSFPPPVADFIKQECLNNIGDASSLIRATIGILITTIASKGELQMWPELLPQLCNLLNSEDYNTCEGAFGALQKICEDSSELLDSDALNRPLNIMIPKFLQFFKHCSPKIRSHAIACVNQFIMDRAQALMDNIDTFIEHLFALAVDDDPEVRKNVCRALVMLLEVRIDRLIPHMHSIIQYMLQRTQDHDENVALEACEFWLTLAEQPICKEVLASHLVQLIPILVNGMKYSEIDIILLKGDVEEDEAVPDSEQDIKPRFHKSRTVTLPHEAERPDGSEDAEDDDDDDALSDWNLRKCSAAALDVLANVFREELLPHLLPLLKGLLFHPEWVVKESGILVLGAIAEGCMQGMVPYLPELIPHLIQCLSDKKALVRSIACWTLSRYAHWVVSQPPDMHLKPLMTELLKRILDGNKRVQEAACSAFATLEEEACTELVPYLSYILDTLVFAFGKYQHKNLLILYDAIGTLADSVGHHLNQPEYIQKLMPPLIQKWNELKDEDKDLFPLLECLSSVATALQSGFLPYCEPVYQRCVTLVQKTLAQAMMYTQHPEQYEAPDKDFMIVALDLLSGLAEGLGGHVEQLVARSNIMTLLFQCMQDSMPEVRQSSFALLGDLTKACFIHVKPCIAEFMPILGTNLNPEFISVCNNATWAIGEICMQMGAEMQPYVQMVLNNLVEIINRPNTPKTLLENTGRLTSPSAIPAITIGRLGYVCPQEVAPMLQQFIRPWCTSLRNIRDNEEKDSAFRGICMMIGVNPGGVVQDFIFFCDAVASWVSPKDDLRDMFYKILHGFKDQVGEDNWQQFSEQFPPLLKERLAAFYGV
B4: importin-11 (IPO11) (protein, UniProt Q9UI26 1-975)
chain: MDLNSASTVVLQVLTQATSQDTAVLKPAEEQLKQWETQPGFYSVLLNIFTNHTLDINVRWLAVLYFKHGIDRYWRRVAPHALSEEEKTTLRAGLITNFNEPINQIATQIAVLIAKVARLDCPRQWPELIPTLIESVKVQDDLRQHRALLTFYHVTKTLASKRLAADRKLFYDLASGIYNFACSLWNHHTDTFLQEVSSGNEAAILSSLERTLLSLKVLRKLTVNGFVEPHKNMEVMGFLHGIFERLKQFLECSRSIGTDNVCRDRLEKTIILFTKVLLDFLDQHPFSFTPLIQRSLEFSVSYVFTEVGEGVTFERFIVQCMNLIKMIVKNYAYKPSKNFEDSSPETLEAHKIKMAFFTYPTLTEICRRLVSHYFLLTEEELTMWEEDPEGFTVEETGGDSWKYSLRPCTEVLFIDIFHEYNQTLTPVLLEMMQTLQGPTNVEDMNALLIKDAVYNAVGLAAYELFDSVDFDQWFKNQLLPELQVIHNRYKPLRRRVIWLIGQWISVKFKSDLRPMLYEAICNLLQDQDLVVRIETATTLKLTVDDFEFRTDQFLPYLETMFTLLFQLLQQVTECDTKMHVLHVLSCVIERVNMQIRPYVGCLVQYLPLLWKQSEEHNMLRCAILTTLIHLVQGLGADSKNLYPFLLPVIQLSTDVSQPPHVYLLEDGLELWLVTLENSPCITPELLRIFQNMSPLLELSSENLRTCFKIINGYIFLSSTEFLQTYAVGLCQSFCELLKEITTEGQVQVLKVVENALKVNPILGPQMFQPILPYVFKGIIEGERYPVVMSTYLGVMGRVLLQNTSFFSSLLNEMAHKFNQEMDQLLGNMIEMWVDRMDNITQPERRKLSALALLSLLPSDNSVIQDKFCGIINISVEGLHDVMTEDPETGTYKDCMLMSHLEEPKVTEDEEPPTEQDKRKKMLALKDPVHTVSLQQFIYEKLKAQQEMLGEQGFQSLMETVDTEIVTQLQEFLQGF
B5: exportin-T (XPOT) (protein, UniProt O43592 1-962)
chain: MDEQALLGLNPNADSDFRQRALAYFEQLKISPDAWQVCAEALAQRTYSDDHVKFFCFQVLEHQVKYKYSELTTVQQQLIRETLISWLQAQMLNPQPEKTFIRNKAAQVFALLFVTEYLTKWPKFFFDILSVVDLNPRGVDLYLRILMAIDSELVDRDVVHTSEEARRNTLIKDTMREQCIPNLVESWYQILQNYQFTNSEVTCQCLEVVGAYVSWIDLSLIANDRFINMLLGHMSIEVLREEACDCLFEVVNKGMDPVDKMKLVESLCQVLQSAGFFSIDQEEDVDFLARFSKLVNGMGQSLIVSWSKLIKNGDIKNAQEALQAIETKVALMLQLLIHEDDDISSNIIGFCYDYLHILKQLTVLSDQQKANVEAIMLAVMKKLTYDEEYNFENEGEDEAMFVEYRKQLKLLLDRLAQVSPELLLASVRRVFSSTLQNWQTTRFMEVEVAIRLLYMLAEALPVSHGAHFSGDVSKASALQDMMRTLVTSGVSSYQHTSVTLEFFETVVRYEKFFTVEPQHIPCVLMAFLDHRGLRHSSAKVRSRTAYLFSRFVKSLNKQMNPFIEDILNRIQDLLELSPPENGHQSLLSSDDQLFIYETAGVLIVNSEYPAERKQALMRNLLTPLMEKFKILLEKLMLAQDEERQASLADCLNHAVGFASRTSKAFSNKQTVKQCGCSEVYLDCLQTFLPALSCPLQKDILRSGVRTFLHRMIICLEEEVLPFIPSASEHMLKDCEAKDLQEFIPLINQITAKFKIQVSPFLQQMFMPLLHAIFEVLLRPAEENDQSAALEKQMLRRSYFAFLQTVTGSGMSEVIANQGAENVERVLVTVIQGAVEYPDPIAQKTCFIILSKLVELWGGKDGPVGFADFVYKHIVPACFLAPLKQTFDLADAQTVLALSECAVTLKTIHLKRGPECVQYLQQEYLPSLQVAPEIIQEFCQALQQPDAKVFKNYLKVFFQRAKP

molecular target: APEX2-FUS WT (human) (UniProt P35637); experiment: proximity labelling; APEX2-FUS fusions transfected in HEK293T; 500 uM biotin-phenol 30 min, 1 mM H2O2 1 min; biotinylated proteins enriched on streptavidin magnetic beads, on-bead digestion, label-free LC-MS/MS; SAINT probability >=0.95 against untransfected control cells

Row | Binder | binding
1 | B1 | binds
2 | B2 | binds
3 | B3 | binds
4 | B4 | binds
5 | B5 | binds

molecular target: APEX2-FUS P525L (human) (UniProt P35637); experiment: as above

Row | Binder | binding
6 | B1 | binds
7 | B2 | binds
8 | B3 | binds
9 | B4 | binds
10 | B5 | binds
